Values from PubChem BioAssay AID1224830 (NIAID, 2016)
In all, the deposit lists about 18,000 reagents; shown is a random part of them. Over the whole deposit, about 2,900 (16%) were called active. 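Calls are made per well; low scores hint the gene aids the LPS response, high scores that it dampens it.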 Repeated entries: four replicate wells of each siRNA pool.

- Screen: 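Genes whose knock-down alters the TNF-alpha reporter response to LPS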 (primary screen)
- System: human THP-1 monocytic leukaemia cells, TNF dual-luciferase reporter clone, PMA-differentiated to macrophage-like cells
- Reagents: siRNA pool against human genes, 50 nM
- Time to read-out: LPS for 4 h, given about 3 days after siRNA transfection
- Treatment: bacterial LPS (TLR4 ligand), 10 ng/ml
- Detection: 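TNF firefly reporter luminescence divided by renilla, normalised to the plate median, then turned into a robust z-score for each replicate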
- Scale: TNF reporter robust z-score: higher = stronger TNF reporter response to LPS
- Active means: 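Each well counts as active if its z-score is over 2.8 or under -1.5; controls are left without a call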

The first 4 records, to show the layout:
Target gene | TNF reporter robust z-score | Call
FGG | 0.15 | inactive
FGG | -0.04 | inactive
FGG | 0.14 | inactive
FGG | -0.03 | inactive

The listing, from the first entry:
Target gene | TNF reporter robust z-score | Call
FGG | 0.15 | inactive
FGG | -0.04 | inactive
FGG | 0.14 | inactive
FGG | -0.03 | inactive
AREL1 | 0.02 | inactive
AREL1 | 0.43 | inactive
AREL1 | 1.01 | inactive
AREL1 | 1 | inactive
ERBB2 | -1.35 | inactive
ERBB2 | 2 | inactive
ERBB2 | 0.52 | inactive
ERBB2 | 0.43 | inactive
METRN | -0.24 | inactive
METRN | 1.27 | inactive
METRN | 0.57 | inactive
METRN | 0.14 | inactive
SLAMF1 | -0.41 | inactive
SLAMF1 | 0.13 | inactive
SLAMF1 | 1.65 | inactive
SLAMF1 | 1.08 | inactive
SEMA6C | -1.3 | inactive
SEMA6C | 0.92 | inactive
SEMA6C | 1.16 | inactive
SEMA6C | 1.54 | inactive
RILPL1 | -1.05 | inactive
RILPL1 | -1.29 | inactive
RILPL1 | -0.96 | inactive
RILPL1 | 1.3 | inactive
CAST | -0.49 | inactive
CAST | -0.64 | inactive
CAST | -1.64 | active
CAST | -1.24 | inactive
THRA | – | inactive
THRA | 0.69 | inactive
THRA | 0.75 | inactive
THRA | -0.02 | inactive
THRA | -0.37 | inactive
RNF8 | -0.28 | inactive
RNF8 | 0.05 | inactive
RNF8 | 0.57 | inactive
RNF8 | 1.04 | inactive
OR1L8 | -1.01 | inactive
OR1L8 | -0.83 | inactive
OR1L8 | -0.12 | inactive
OR1L8 | 0.59 | inactive
CMTM1 | -1.25 | inactive
CMTM1 | -1.01 | inactive
CMTM1 | -0.82 | inactive
CMTM1 | -0.92 | inactive
LTBR | 0.11 | inactive
LTBR | 0.89 | inactive
LTBR | 1.12 | inactive
LTBR | 1.06 | inactive
TMED1 | 1.01 | inactive
TMED1 | 2.34 | inactive
TMED1 | 1.68 | inactive
TMED1 | 0.06 | inactive
OR1D4 | 0.66 | inactive
OR1D4 | -0.01 | inactive
OR1D4 | 0.46 | inactive
OR1D4 | 1.05 | inactive
PDE6A | -1.77 | active
PDE6A | -1.43 | inactive
PDE6A | -1.08 | inactive
PDE6A | -1.22 | inactive
KCNQ2 | -0.77 | inactive
KCNQ2 | 0.26 | inactive
KCNQ2 | -0.19 | inactive
KCNQ2 | 0.79 | inactive
ODF2L | 0.39 | inactive
ODF2L | 1.06 | inactive
ODF2L | 1.35 | inactive
ODF2L | 2.87 | active
MSX2 | -0.75 | inactive
MSX2 | -0.47 | inactive
MSX2 | -1.33 | inactive
MSX2 | -1.04 | inactive
TRAF3IP2 | 0.16 | inactive
TRAF3IP2 | 2.02 | inactive
TRAF3IP2 | 1.32 | inactive
TRAF3IP2 | 1.81 | inactive
PC | -0.73 | inactive
PC | -0.71 | inactive
PC | -1.61 | active
PC | -1.72 | active
GSDMA | -0.47 | inactive
GSDMA | 0.14 | inactive
GSDMA | 0.32 | inactive
GSDMA | 0.2 | inactive
SP140L | 0.09 | inactive
SP140L | -0.19 | inactive
SP140L | -0.05 | inactive
SCGB3A1 | 0.28 | inactive
SCGB3A1 | -0.05 | inactive
SCGB3A1 | 0.06 | inactive
SCGB3A1 | -0.28 | inactive
DUSP18 | 0.62 | inactive
DUSP18 | -0.09 | inactive
DUSP18 | -0.55 | inactive
DUSP18 | 0.4 | inactive
PTPRU | -0.73 | inactive
PTPRU | -0.67 | inactive
PTPRU | 0.02 | inactive
PTPRU | -0.09 | inactive
MFAP1 | -0.82 | inactive
MFAP1 | -1.54 | active
MFAP1 | -1.65 | active
MFAP1 | -0.8 | inactive
TTLL2 | -1.29 | inactive
TTLL2 | -1.23 | inactive
TTLL2 | -0.72 | inactive
TTLL2 | -0.65 | inactive
